Measurements reported in PubChem BioAssay AID1259308 (NCATS, 2017).
Aim: 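Knock-downs that increase output of a recombinant reporter protein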 (primary screen). Cell system: human HEK293 embryonic kidney cells stably expressing firefly luciferase (HEK-CMV-Luc2-Hygro). Reagents: single siRNA against human genes, 0.8 pmol siRNA per well. Duration: 72 h. Measured: 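Reporter luminescence and viable-cell signal on separate replicate plates, given as percent of non-targeting control and median/MAD z-scores, plus per-cell luciferase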. Scale: total luciferase, z-score: higher = more reporter protein produced. Call rule: 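An siRNA counts as active if its total luciferase robust z-score exceeds 3; genes with two or more such siRNAs out of three were retested with fresh siRNAs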. Meaning of the calls: active = raised luciferase; inactive = no rise.
Shown is an unselected part of about 59,000 deposited reagents. In the full data, about 1,510 (2.6%) got an active call. 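Calls use total luciferase alone and ignore viability, so some active siRNAs may act by altering cell number.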 Reagents against one gene are numbered here. Not all columns of the deposit are shown.

What is on record for STXBP5-AS1 (STXBP5 antisense RNA 1) #1?
total luciferase, z-score: -0.165; Outcome: inactive

How did the screen score STXBP5-AS1 (STXBP5 antisense RNA 1) #2?
total luciferase, z-score: 1.53; Outcome: inactive

Which result is listed for STXBP5-AS1 (STXBP5 antisense RNA 1) #3?
total luciferase, z-score: 0.174; Outcome: inactive

With CREB5 (cAMP responsive element binding protein 5) #1, what was measured?
total luciferase, z-score: -0.293; Outcome: inactive

What did the screen give for CREB5 (cAMP responsive element binding protein 5) #2?
total luciferase, z-score: 0.492; Outcome: inactive

What did the screen give for CREB5 (cAMP responsive element binding protein 5) #3?
total luciferase, z-score: -0.864; Outcome: inactive

Which result is listed for CREB5 (cAMP responsive element binding protein 5) #4?
total luciferase, z-score: -0.427; Outcome: inactive

What did the screen give for CREB5 (cAMP responsive element binding protein 5) #5?
total luciferase, z-score: -0.444; Outcome: inactive

What is on record for CREB5 (cAMP responsive element binding protein 5) #6?
total luciferase, z-score: -1.31; Outcome: inactive

What did the screen give for SLC44A5 #1?
total luciferase, z-score: -0.392; Outcome: inactive

With SLC44A5 #2, what does the deposit list?
total luciferase, z-score: -2.53; Outcome: inactive

For SLC44A5 #3, what was measured?
total luciferase, z-score: -0.0688; Outcome: inactive
